The list shows a part of the results. This data set is noisy: repeats of one test often differ as much as different tests do.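 Human kidney-derived cells stably carry a construct in which eight TEAD-binding elements drive luciferase, measured by luminescence in a drug-repurposing library screen. A hit is any compound whose signal exceeds the plate mean by more than five robust Z scores.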
Tested on: HEK293A TEAD-LUC reporter
Assay: TEAD-luciferase reporter activity (YAP activation), robust Z score vs plate; higher = stronger YAP/TEAD activation
Conditions: 24 h

| Structure (SMILES) | TEAD-luciferase reporter activity (compound concentration: 200 nM) | TEAD-luciferase reporter activity (compound concentration: 2 uM) | TEAD-luciferase reporter activity (compound concentration: 10 uM) |
| --- | --- | --- | --- |
| CCOCCn1nc(CC)c2nc(N3CCC(C(=O)O)CC3)nc(Nc3cc(C)ccn3)c21 | inactive: -0.735 | inactive: -0.618 | inactive: -1.15 |
| CC(=C\c1ccccc1)/C=C1/SC(=S)N(CC(=O)O)C1=O [diepalrestat choline] | inactive: -1.19 | inactive: -2.3 | inactive: -0.992 |
| N#Cc1c(N)nc(N)nc1N[C@H](c1nc2c(F)ccc(Cl)c2c(=O)n1-c1cccnc1)C1CC1 | inactive: -1.59 | inactive: -0.764 | inactive: -1.23 |
| Nc1nc(O)c2c(CCc3ccc(C(=O)NC(CCC(=O)O)C(=O)O)cc3)c[nH]c2n1 (stereo unspecified) [pemetrexed disodium] | inactive: -1.09 | inactive: 1.09 | inactive: -0.255 |
| Cc1c(F)c(N2CCNC(C)C2)cc2c1c(=O)c(C(=O)O)cn2C1CC1 (stereo unspecified) [grepafloxacin] | inactive: -1.34 | inactive: 0.519 | inactive: 0.127 |
| CC12C=CC(=O)C=C1CCC1C2C(O)CC2(C)C1CC[C@]2(O)C(=O)COC(=O)CCC(=O)O (stereo partly specified) [Prednisolone Sodium Succinate] | inactive: 2.8 | inactive: -0.841 | inactive: 0.499 |
| CC(=O)Nc1ccc(C(=O)N2CCN(c3ccc(C=O)cc3)C(=O)C2)cc1 | inactive: -0.452 |  | active: 5.97 |
| Nc1nc2c(cnn2CCN2CCN(c3ccc(F)cc3F)CC2)c2nc(-c3ccco3)nn12 | inactive: -0.0506 | inactive: -0.781 | inactive: -1.36 |
| Cc1cc(S(=O)(=O)O)c2c(C)ccc(C(C)C)cc1-2 [azulene sodium sulfonate] | inactive: 0.385 | inactive: 0.878 | inactive: 2.2 |
| CCOc1ccc(NC(=O)CN)cc1 | inactive: -1.22 | inactive: -1.19 | inactive: 0.0779 |
| O=C1OC2(c3ccc(O)cc3Oc3cc(O)ccc32)c2ccccc21 [Fluorescein sodium] | inactive: -0.638 | inactive: -0.279 | inactive: -1.51 |
| COc1ccc(Cn2c(C)nc3c(C)nc(Cl)nc32)cc1OC1CCCC1 | inactive: 1.08 | inactive: -1.14 | inactive: -1.36 |
| NS(=O)(=O)c1cc(Cl)c(Cl)c(S(N)(=O)=O)c1 [Diclofenamide] | inactive: -0.0742 | inactive: 0.309 | inactive: -0.664 |
| CNCC/C=C1\c2ccccc2CC(O)c2ccccc21 (stereo unspecified) | inactive: 0.861 | inactive: -1.95 | active: 8.72 |
| CN(C)Cc1cc(F)ccc1Sc1cccc(O)c1 | inactive: -0.885 | inactive: -1.39 | inactive: -0.54 |
| CC1(C)OC2COC3(COS(N)(=O)=O)OC(C)(C)OC3C2O1 (stereo unspecified) [topiramate ER] |  | inactive: -1.06 |  |
| CC1(C)OC2COC3(COS(N)(=O)=O)OC(C)(C)OC3C2O1 (stereo unspecified) [topiramate ER, Upsher-Smith] | inactive: -1.31 |  | inactive: -0.12 |
| N#Cc1ccc(-c2ccc(S(=O)(=O)Nc3cccc(N)n3)cc2)cc1 | inactive: -1.12 | inactive: -1.23 | inactive: -0.0864 |

Reformatted: entries from further up.
Structure (SMILES) | TEAD-luciferase reporter activity (compound concentration: 200 nM) | TEAD-luciferase reporter activity (compound concentration: 2 uM) | TEAD-luciferase reporter activity (compound concentration: 10 uM)
O=C1OC2(c3ccc(O)cc3Oc3cc(O)ccc32)c2ccccc21 [Fluorescein sodium] | inactive: -0.638 | inactive: -0.279 | inactive: -1.51
COc1ccc(Cn2c(C)nc3c(C)nc(Cl)nc32)cc1OC1CCCC1 | inactive: 1.08 | inactive: -1.14 | inactive: -1.36

(cont.)

| Structure (SMILES) | TEAD-luciferase reporter activity (compound concentration: 200 nM) | TEAD-luciferase reporter activity (compound concentration: 2 uM) | TEAD-luciferase reporter activity (compound concentration: 10 uM) |
| --- | --- | --- | --- |
| COc1ccc(C#N)cc1C(=O)NCCN1CCC(C(=O)c2ccc(F)cc2)CC1 [prideperone] | inactive: -2.24 | inactive: -0.828 | inactive: 1.07 |
| COc1ccc(C(=O)N2CCC(N3CCCC3=O)CC2)cc1 | inactive: -0.437 |  | inactive: -1.42 |
| COc1ccc2cc1Oc1ccc(cc1)C[C@H]1c3cc(c(OC)cc3CCN1C)Oc1c(OC)c(OC)cc3c1[C@H](C2)N(C)CC3 [Hanfangchin A] |  | inactive: 0.186 |  |
| COc1ccc2cc1Oc1ccc(cc1)C[C@H]1c3cc(c(OC)cc3CCN1C)Oc1c(OC)c(OC)cc3c1[C@H](C2)N(C)CC3 | inactive: -2.45 |  | inactive: -0.378 |
| COc1ncc(OC)c2c(C(=O)C(=O)N3CCN(C(=O)c4ccccc4)CC3)c[nH]c12 | inactive: -1.48 | inactive: -1.1 | inactive: 3.68 |
| COc1ccc2c(c1)N(C(=O)OC(C)C)[C@@H](CSC)C(=S)N2 | inactive: -1.08 | inactive: -0.691 | inactive: -1.85 |
| CO/N=C(/C(=O)NC1C(=O)N2C(C(=O)OCOC(=O)C(C)(C)C)=CCSC12)c1csc(NC(=O)C(C)N)n1 (stereo unspecified) [ceftizoxime alapivoxil] | inactive: -0.663 | inactive: -0.128 | inactive: -0.0332 |
| CN1CCC(C(=O)N2c3ccccc3NC(=O)c3cccnc32)CC1 | inactive: 0.513 | inactive: -2.15 | inactive: 0.675 |
| COC(=O)[C@H](Cc1cccc(C(=N)N)c1)[C@@H](C)NC(=O)c1ccc(-c2cc[n+]([O-])cc2)cc1 [Otamixaban] | inactive: -0.215 | inactive: -1.25 | inactive: 0.246 |
| CCN(CC)S(=O)(=O)c1ccc(NS(C)(=O)=O)cc1 | inactive: -2.29 | inactive: 0.433 | inactive: 4.59 |
| CCCCCCCCCCCCS[C@H](C(=O)Nc1cc(C)c(O)c(C)c1C)c1ccccc1 [Eflucimibe] |  | inactive: 0.428 |  |
| CCCCCCCCCCCCS[C@H](C(=O)Nc1cc(C)c(O)c(C)c1C)c1ccccc1 | inactive: -2.4 |  | inactive: -1.45 |
| CCN(CC)CC(=O)Oc1ccc(NC(C)=O)cc1 [propacetamol] | inactive: -1.59 | inactive: 0.364 | inactive: -0.747 |
| CS(=O)(=O)NCCN1CCC(CCC(=O)c2cc(Cl)c(N)c3c2OCCO3)CC1 | inactive: -0.735 | inactive: -2.09 | inactive: 1.25 |
| CCCN1CCCC12Cc1ccccc1CN(C(=O)C(C)C)C2 (stereo unspecified) | inactive: -2.26 |  | inactive: 0.997 |
| CCC(=O)NO | inactive: -0.525 | inactive: -0.321 | inactive: -0.214 |
| CCCCCCN(C)Cc1ccc(OCCOc2ccc(CN(C)CCCCCC)cc2)cc1 | inactive: 2.3 | inactive: -0.339 | inactive: 0.0909 |
| CCCCC/C=C\C/C=C\C/C=C\CCCCC(=O)OC[C@H](O)[C@H]1OC(=O)C(O)=C1O [Ascorbyl gamolenate] | inactive: -1.53 | inactive: 1.09 | inactive: -1.65 |
